Measured values: PubChem BioAssay AID743255 (National Center for Advancing Translational Sciences (NCATS), 2014)
Out of some 390,000 compounds screened, about 910 (0.23%) were called active. The shares of active, inactive and inconclusive entries below differ from those in the screen. Calls come from the whole dose curve; as a rule, active = well fitted inhibition curve with a large enough effect; inconclusive = small, poorly fitted or top-dose-only effect; inactive = no such curve, though single readings can be large or run the other way. Potencies of inconclusive entries are doubtful fits and often do not repeat.

Sequences of proteins named here, by UniProt entry; tags and fusion partners are left off. A change or cut given only in a name is not applied to a line headed by its entry.
UniProt O94782: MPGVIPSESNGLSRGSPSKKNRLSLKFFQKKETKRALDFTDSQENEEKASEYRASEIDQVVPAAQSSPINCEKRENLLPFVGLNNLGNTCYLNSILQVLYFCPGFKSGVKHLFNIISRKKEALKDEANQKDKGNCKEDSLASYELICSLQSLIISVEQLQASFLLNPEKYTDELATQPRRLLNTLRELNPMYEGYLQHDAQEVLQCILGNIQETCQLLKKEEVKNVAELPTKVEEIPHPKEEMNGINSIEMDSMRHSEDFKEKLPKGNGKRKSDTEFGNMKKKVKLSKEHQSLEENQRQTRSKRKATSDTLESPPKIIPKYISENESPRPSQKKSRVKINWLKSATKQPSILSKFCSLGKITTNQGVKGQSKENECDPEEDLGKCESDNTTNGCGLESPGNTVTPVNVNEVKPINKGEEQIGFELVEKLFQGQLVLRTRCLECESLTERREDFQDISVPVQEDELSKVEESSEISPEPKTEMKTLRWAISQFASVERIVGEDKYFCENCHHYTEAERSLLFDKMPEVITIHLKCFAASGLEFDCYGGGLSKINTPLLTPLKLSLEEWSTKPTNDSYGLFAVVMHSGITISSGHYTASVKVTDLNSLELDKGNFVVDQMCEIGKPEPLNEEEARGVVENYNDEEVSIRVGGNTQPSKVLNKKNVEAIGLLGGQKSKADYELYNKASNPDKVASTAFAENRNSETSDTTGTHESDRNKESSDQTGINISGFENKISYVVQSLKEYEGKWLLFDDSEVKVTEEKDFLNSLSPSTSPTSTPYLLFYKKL

target: Ubiquitin carboxyl-terminal hydrolase 1 (Homo sapiens) (UniProt O94782); experiment: Inhibitors of USP1/UAF1: Primary Screen; conditions: recombinant USP1/UAF1, Ub-Rhodamine cleavage fluorescence; activity change, negative = inhibition: at 57.1 µM (top of the series); note: nearly all actives have a fitted effect of over 60% in size
How it was run: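 Step one: compound is pinned into 1nM USP1/UAF1 in HEPES pH 7.8 buffer with TCEP. Step two: 15 min room-temperature incubation. Step three: Ub-Rho (150nM final) starts cleavage, tracked by fluorescence over six one-minute reads.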
% is set by controls: 0 for no effect and ±100 for the full control effect; potency is the fitted concentration of half-maximal effect.

Potency, active:
CC(=O)c1ccc(N2C(=O)C3C(C2=O)C(C(=O)c2ccc(Cl)cc2)N2CCCC32)cc1 (centres undefined) 17.8 µM

Potency, inconclusive:
C/C(N)=C(/C#N)C(=O)CSc1nnc(Nc2c(C)cccc2C)s1 6.31 µM [inhibitor, single point], Cc1nc(N)c(Br)c(C)c1Br 7.08 µM [inhibitor, partial curve, poor fit], CC(C)(C)[C@H]1COC(=O)CC/C=C\C[C@@H](CC(=O)N[C@H](CO)Cc2ccccc2)C(=O)N1 0.251 µM [inhibitor, full curve, poor fit], COCCNC(=O)Nc1ccc2nc(-c3ccco3)c(-c3ccco3)nc2c1 31.6 µM [inhibitor, partial curve], COc1ccc(-c2cc(C(F)(F)F)nc(NCCc3ccccc3)n2)cc1OC 0.447 µM [inhibitor, full curve, poor fit], Cn1c(=O)n(C)c2cc(C(=O)Nc3ccc(Br)cc3)ccc21 0.708 µM [inhibitor, full curve, poor fit], Cc1nc(NC(=O)c2ccccc2)sc1-c1csc(NCCc2ccccc2)n1 44.7 µM [inhibitor, partial curve], O=C(Nc1ccc(F)cc1)Nc1sccc1-c1nc2ccccc2s1 7.08 µM [inhibitor, single point], OCCN(CCO)c1ncnc2c1cnn2-c1ccc(F)cc1 6.31 µM [inhibitor, partial curve], O=C(CCCCl)OCc1cn(-c2ccc(Cl)cc2)nn1 44.7 µM [inhibitor, partial curve, poor fit], O=c1c(O)cccc2cc(O)c(O)c(O)c12 44.7 µM [inhibitor, partial curve, poor fit], COc1cc(NC(C)=O)c2ncccc2c1NC(C)=O 44.7 µM [inhibitor, partial curve], COc1ccc(Cn2c(SCc3ccc(C(=O)NC(C)c4ccccc4)cc3)nc3cccnc32)cc1 (centres undefined) 50.1 µM [inhibitor, partial curve, poor fit], O=[N+]([O-])c1ccc(NC(=S)NCCc2ccc(Cl)cc2)cc1 50.1 µM [inhibitor, partial curve, poor fit], CC(=O)N(Cc1cc(=O)[nH]c2ccccc12)c1ccccc1C 0.631 µM [inhibitor, full curve, poor fit], COc1ccc(Cl)cc1C(=O)Nn1cnc2ccccc2c1=O 5.01 µM [inhibitor, partial curve], C=C1CCN([C@@H](Cc2ccccc2)C(=O)NCCCc2ccccc2)S(=O)(=O)c2ccccc21 50.1 µM [inhibitor, single point], O=C(Nc1ccc(N=Nc2ccccc2)cc1)c1ccc(Cl)cc1Cl 2.24 µM [inhibitor, full curve, poor fit], CCOc1ccc(N(Cc2ccccc2)C(=O)c2nc(S(C)(=O)=O)ncc2Cl)cc1 1 µM [inhibitor, full curve, poor fit], CCOC(=O)CNC(=O)N1CCN(c2nnc(C)c3c(C)n(-c4ccc(Cl)cc4)nc23)CC1 7.94 µM [inhibitor, partial curve, poor fit], COc1ccc(OC)c(NC(=O)Cn2c(=O)cc(-c3ccccc3)c3c(C)nn(C)c32)c1 50.1 µM [inhibitor, partial curve, poor fit], CCCC1NC(=O)c2cccnc2-n2c1nc1ccc(Cl)cc1c2=O (centres undefined) 0.282 µM [inhibitor, full curve, poor fit], COc1ccccc1NC(=O)COC(=O)CN1C(=O)C(=O)c2ccccc21 20 µM [inhibitor, partial curve, poor fit], CCOc1ccc(N2C(=O)CC(NCC3CCCO3)C2=O)cc1 (centres undefined) 0.316 µM [inhibitor, full curve, poor fit], O=C1/C(=C/C=C/c2ccccc2)Oc2c1ccc(O)c2CN1CCN(CCO)CC1 35.5 µM [inhibitor, partial curve], Cc1ccc(-c2csc3nc4c5ccccc5c(NCCCN(C)C)nn4c(=O)c23)cc1 8.91 µM [inhibitor, full curve, poor fit], CCC(Oc1ccccc1)C(=O)Nc1cc(-c2cccc(C)c2)nn1-c1ccccc1 (centres undefined) 44.7 µM [inhibitor, partial curve, poor fit], Fc1ccccc1Cc1cn2cc(-c3ccc(Cl)cc3)nc2s1 158 µM [inhibitor, partial curve, poor fit]

Activity change, negative = inhibition, inactive:
O=C(/C=C\NCC(=O)c1ccccc1)c1ccc(F)cc1 -13.7%, CCN1C(=O)[C@H]2[C@@H](c3ccc(-c4ccccc4)c(OC)c3)N[C@@](CC(C)C)(C(=O)OC)[C@H]2C1=O -14.3%, Oc1cc(Br)ccc1C=Nc1ccc(N2CCCCC2)cc1 -26.3%, Cc1cc(C)n(-c2nc3ccccc3nc2N2CCN(c3cccc(C(F)(F)F)c3)CC2)n1 -20.8%, O=C1c2cc(O)cc(O)c2C(=O)c2c1cc(O)c([C@@H](CO)CCO)c2O -10.7%, COc1ccc(NC(=O)NNC(=O)C(C)Oc2ccc(C(C)C)cc2)c(OC)c1 (centres undefined) -16.4%, Cc1ccc(NC(=O)CSc2nc(O)cc(=O)n2C)cc1 -5.03%, CCOc1ccc(C(=O)NC(Cc2ccccc2)C(=O)OC)cc1 (centres undefined) -3.86%, CC(=O)N1CC23C=CC(CC2CC12CCCCCC2)O3 (centres undefined) -8.29%, O=C(CNC(=O)c1ccc(Br)cc1)c1ccc(Br)cc1 -20%, O=C(Cc1ccsc1)NCc1ccccc1F -18.9%, O=C1/C(=C/c2ccc(O)c([N+](=O)[O-])c2)SC(=S)N1Cc1ccccc1 -18.2%, O=C(O)c1c(C(=O)O)c(-c2ccc(Cl)c(Cl)c2)n2c1CSC2 -26.5%, Cc1ccc(NC(=O)Cc2cccs2)cc1Cl -33.6%, COc1ccc(NC(=O)COC(=O)Cn2nnc3ccccc32)cc1 5.68%
